Reference: US20170014391A1, “SGK1 INHIBITORS FOR TREATMENT OF PROSTATE CANCER” (Sloan-Kettering Institute for Cancer Research, priority 2013, published 2017)
At least one structure is not confirmed: it was looked up by name or label, or the drawing left a doubt. Some entries share one result that the patent states for a list of compounds.

Columns and labels:
AR target genes in VCaP = experiment: AR/GR target gene expression in VCaP cells; format: cell-based
VCaP cells = experiment: VCaP in vitro growth assay (CellTiter-Glo); format: cell-based; settings: Dex 100 nM with Enz 10 micromolar
Experimental: Enz=10 micromolar, Dex=100 nM, CMP 15=1 micromolar. A. Western blot analysis of prostate cancer cell lines. B, C and D. Cell viability assessed by CellTiter-Glo (Promega) assay and normalized to day 1 value after indicated treatments+/−s.e.m. E. Confirmation of GR knock-down by western blot after infection with GR targeting shRNA. F. Apoptosis as assessed by cPARP western blot after 3 days of indicated treatment. G. A suite of AR targets relevant to VCaP was defined (see methods) and normalized expression of each gene after 24 hours of indicated drug treatments is depicted by heat map and ranked by degree of induction with Dex. H. Expression of the top two genes from […]. (KLK2 and FKBP5) after 24 hours of indicated treatments+/−s.e.m. See also FIG. S6.
Viability is plotted normalized to day 1.

[1] = tested on: AR target genes in LREX′ cell line; experiment: Expression of AR target genes in LREX′ cell line (RT-qPCR); format: cell-based; settings: steroid depleted media, 8 hours
Excerpt: A. Normalized expression array signal (Illumina HT-12) of a suite of 74 AR target genes in control (n=10), 4 day (n=8), and LREX′ (n=8, right) xenograft tumors. Genes are ranked by degree of restoration of expression in resistant tissue ((Res-4 day)/(Control-4 day)). All resistant tissues were continued on anti-androgen treatment through time of harvest. B. Fractional restoration values of each of the 74 AR targets in LREX′ xenografts (n=8) or resistant tissues from the validation cohort (n=12, see also FIG. S3). C. GR mRNA in resistant tissues used in B. D. Expression of AR target genes in the LREX′ cell line in steroid depleted media after 8 hours of treatment with the indicated agonists, in vitro. Enzalutamide=10 micromolar, V=Vehicle.+/−s.e.m. See also FIGS. S3, S4.
A. LnCaP/AR cells engineered to express GFP or GR were treated with indicated drugs. […] D. Control or AR siRNA knock-down in LREX′ followed by treatment with indicated drugs. […] Cells were treated in charcoal stripped media. Expression determined by RT-qPCR+/−s.e.m.
LREX′ cells were derived from a single enzalutamide resistant tumor that was harvested, disaggregated with collagenase treatment, and then maintained in RPMI supplemented with 20% FBS and 1 μM enzalutamide. Cells were initially grown on collagen-coated flasks until confluent and then were maintained on standard tissue culture dishes. CS1 were similarly derived from vehicle treated tumors and maintained in standard LNCaP/AR media. LNCaP/AR and LREX′ cells were cultured in phenol-red free RPMI with 10% charcoal-stripped FBS prior to drug treatments.
RNA was extracted from cell lines using the RNeasy kit (Qiagen). Frozen tumors were lysed with lysing matrix A using the Fast-Prep24 tissue homogenizer system (MP BIOMEDICALS) in Trizol (Invitrogen) followed by clean up with RNeasy (Qiagen). cDNA was generated with the High Capacity cDNA Reverse Transcription Kit (Applied Biosystems.) Data was quantified relative to either beta Actin or GAPDH expression and relative expression was generally plotted. […]

[2] = tested on: advanced stage prostate cancer; settings: typical, clinical; cited from earlier work
[3] = Dex 100 nM, Enz 10 micromolar, 24 hours

With `C[C@@H]1C[C@H]2[C@@H]3CCC4=CC(=O)C=C[C@]4(C)[C@@]3(F)[C@@H](O)C[C@]2(C)[C@@]1(O)C(=O)CO` [Dex, dexamethasone] the “expression of DHCR24, SLC2A3, TRPM8, TMEM79 in the presence of enzalutamide” value (AR target genes in VCaP; [3]) was “but not others”, the “expression of KLK2, FKBP5, HOMER2, SLC45A3 in the presence of enzalutamide” value (AR target genes in VCaP; [3]) was “restored expression” and the “expression of PSA in VCaP” value (AR target genes in VCaP; FIGS. S6B, C) was “induced expression”. For the same compound, the “effect of co-treatment on enzalutamide growth inhibition” value (VCaP cells) was “reversed this growth inhibition”, the “expression of KLK3 (PSA)” value [1] was “comparably induced” and the “expression of SGK1 and STK39” value [1] was “strongly induced”. The “expression of TIPARP, NDRG1, and PMEPA1” value [1] was “did not induce”.

For `C[C@]12CC[C@H](O)CC1=CC[C@@H]1[C@@H]2CC[C@]2(C)C(c3cccnc3)=CC[C@@H]12` [abiraterone], the “time to acquired resistance” value [2] is given as 6-12 months.

For `CNC(=O)c1ccc(N2C(=S)N(c3ccc(C#N)c(C(F)(F)F)c3)C(=O)C2(C)C)cc1F` [enzalutamide], the “time to acquired resistance” value [2] is listed as 6-12 months.
